# PMC10163288
# The other results are listed elsewhere or left out.
# B1: il2ra_site1_1z92_sap_18_mot_HHH_b2_04293_000000220_0001_23_38_H_._HHH_b2_07985_0001_0000300030_0000001_0_0001_af2pred_0001_af2pred (protein)
# chain: SSSSSKLEKDLRIAVKVAVRAAGLSEEEQEELERLAEELARRGIDREEALRILDKRALELHSSSS
# B2: il2ra_site2_2erj_normal_mot_HHH_b2_04744_000000290_0001_42_58_H_._HHH_b1_07932_0001_0000100006_0000001_0 (protein)
# chain: SSSSDEEEIEELLEELQEALERGDHELFNEIATRVFELIKKLGDEELALILWRLMREHFELSSSS
# B3: il2ra_site2_2erj_normal_mot_HHH_b1_03107_000000098_0001_39_52_H_._HHH_b2_04977_0001_0000300025_0000001_0 (protein)
# chain: SSSSSEERRKIFEEIAELSARLIEEGDPELLKRLEELLEIAEELGNEIAVRYAEFARRDHSSSSS
# B4: il2ra_site2_2erj_sap_5_mot_7e65b9b3744af75e5722afc9efacd91e_0001_000000122_0001_16_31_H_._HHH_b1_00287_0002_0000700051_0000001_0_0001 (protein)
# chain: SSSSSEEEVEELIQEAERLLEEGDPEKAEEVLSRAFELAYEVNDPELASRVIELMASIVRSSSSS
# B5: il2ra_site1_3nfp_sap_17_mot_HHH_b2_06429_af2_000000115_0001_1_18_H_._HHH_b2_03571_af2_0001_0000700010_0000001_0_0001 (protein)
# chain: GIAALLALRAIEDGSERTVKRLREQIERMARLLKDPKMEELLELIERALQGDPEAKEELEKLIED
# B6: il2ra_site2_2erj_normal_mot_af86707857d369f3e1d85dcabc5f9321_0001_000000201_0001_14_29_H_._HHH_b1_04724_af2_0001_0000400016_0000001_0 (protein)
# chain: SSSSDLEERVEELLEKAEELLERGNPEEALEVVREAFEIAYKLGDHRLAALAIELAHKIVRSSSS
# B7: il2ra_site1_1z92_sap_16_mot_HHH_b1_06078_000000124_0001_1_18_H_._b330152711b06c111f3f0455498469a7_0001_1_af2_0001_0000400016_0000001_0_0001_af2pred_0001_af2pred … (protein)
# chain: SSSSDLEEIAEELVEELVEEFGADEEEEEALRKAAQLAARNGFSPKSIHLALRRLIERELSSSSS
# B8: il2ra_site2_3nfp_sap_15_mot_HHH_b2_06897_000000042_0001_40_57_H_._1a8b5531b1c5c0995b8d0dfb01d8624e_0001_0001_0000200014_0000001_0_0001 (protein)
# chain: SSSSDVERYIKAALALAKRAAERNDPQAERLLELIRAAIEDAGDEEAKELLEEIERLLRELSSSS
# B9: il2ra_site1_2b5i_sap_20_mot_HHH_b2_01776_af2_000000178_0001_1_14_H_._HHH_b2_00329_0001_0000100002_0000001_0_0001 (protein)
# chain: SSSSDEANRELVRFIWELFFRFGLSAEQARELDQLAAELLDRGVSVEEIKELLRELAEELSSSSS
# B10: il2ra_site2_2erj_normal_mot_HHH_b1_03609_af2_000000077_0001_42_55_H_._HHH_b1_05140_0001_0000100007_0000001_0 (protein)
# chain: SSSSSDEEEVQRLLEEAKELLEEGNPEEALEILREASVRAFRANNFELWSLLAELSREVASSSSS
# B11: il2ra_site2_3nfp_sap_15_mot_HHH_b1_02084_000000020_0001_36_55_H_._dc0e4c8b9eb78cb05ea10a80a584d50d_0001_0001_0000700043_0000001_0_0001 (protein)
# chain: SSSSEEERVEELIQEAEKLLEEGDPSEAAQLVLEASEIAARLNDPELARKVLELFEAIQNNSSSS
# B12: il2ra_site1_2b5i_normal_mot_f5ff40796168375b462bec8614a1db4a_0001_1_000000138_0001_53_65_H_._HHH_b1_05434_af2_0001_0000100002_0000001_0_af2pred_dldesign_0_af2pr … (protein)
# chain: SSSSSSGSRELIRELIEKAKELPDKREAYRVLRMALRLARKAGDEELLAEVEALLAELSSSSSSS
# B13: il2ra_site2_3nfp_sap_22_mot_HHH_b1_00940_af2_000000266_0001_1_16_H_._HHH_b1_06086_0001_0000600043_0000001_0_0001 (protein)
# chain: SDAEHVELALRLIKAHALIAGDEEVERIVKELEELLEEAKEKNDEELLREVAERANELAERVANS
# B14: il2ra_site1_2b5i_sap_10_mot_HHH_b1_06258_af2_000000112_0001_42_56_H_._HHH_b1_01191_0001_0000300026_0000001_0_0001_af2pred_dldesign_0_af2pred (protein)
# chain: SSSSSSAKEVLDLFEEANRLYQAGKEEEAKELLEKALELAKKAGNPSLVRFVQACLEALESSSSS
# B15: il2ra_site2_2erj_normal_mot_HHH_b2_05804_000000098_0001_44_58_H_._HHH_b1_00545_0001_0000300010_0000001_1 (protein)
# chain: SSSSSDEEKEVWERVAELLVRALEVDEEEVRKLLEEARELAEEANDPFLERYIEFVRRSHSSSSS
# B16: il2ra_site1_1z92_sap_13_mot_HHH_b1_07881_000000176_0001_43_56_H_._HHH_b2_04254_0001_0000100009_0000001_0_0001_af2pred_0001_af2pred_1 (protein)
# chain: SSSSSSEEERIQEASEIFTEAQKIKDKEEVRKLLEEALELAEKARDENDRKDIERYLRALSSSSS
# B17: il2ra_site1_1z92_sap_17_mot_HHH_b1_00661_af2_000000033_0001_38_50_H_._HHH_b2_00969_af2_0001_0000300012_0000001_0_0001_af2pred_0001_af2pred (protein)
# chain: DEEYEELIEELRRRGLSPEEIVEILLEFIRKEARLPPRLALQLLRQVLRRLGDPELVQIVRELLE
# B18: il2ra_site2_2erj_normal_mot_HHH_b1_07806_000000211_0001_42_56_H_._HHH_b2_07722_0001_0000200021_0000001_0 (protein)
# chain: SSSSSEIVRRVYELLERADQAIQEGDEEAVRKIIEELEELAEKFENRAIEWAAEALERQLGSSSS
# B19: il2ra_site2_2erj_sap_9_mot_HHH_b1_07584_000000201_0001_42_55_H_._HHH_b2_03843_af2_0001_0000600005_0000001_0_0001_af2pred_0001_1_af2pred_swapped (protein)
# chain: PEELLELLRRALKYLKSPLAEELLRVLEELLERGVPPEEIEEELKRVAQELNDPDLERAVKAAGP
# Target: il2ra, P01589
# Assay: yeast display titration
row,Binder,apparent Kd
1,B1,inactive: no binding seen
2,B2,inactive: no binding seen
3,B3,inactive: no binding seen
4,B4,inactive: no binding seen
5,B5,inactive: no binding seen
6,B6,inactive: no binding seen
7,B7,inactive: no binding seen
8,B8,inactive: > 1.22 µM
9,B9,inactive: no binding seen
10,B10,inactive: no binding seen
11,B11,inactive: no binding seen
12,B12,inactive: no binding seen
13,B13,inactive: no binding seen
14,B14,inactive: no binding seen
15,B15,inactive: no binding seen
16,B16,inactive: no binding seen
17,B17,inactive: no binding seen
18,B18,inactive: no binding seen
19,B19,inactive: no binding seen
